Results deposited as PubChem BioAssay AID1159584 (Peter MacCallum Cancer Centre, 2016)
This is an unselected part of about 18,000 deposited reagents. Reagents against one gene are numbered here. No sequences are given here. Not given: the amount of reagent, the time to read-out.

Screen: 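Genes whose loss is lethal only together with E-cadherin loss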 (primary screen)
Cells: human MCF10A breast epithelial cells, parental and CDH1-null
Reagent: siRNA against human genes
Detection: 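Cell viability by CellTiter-Glo ATP luminescence, each line scaled to the mean of mock wells across plates, then CDH1-null over parental ratio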
Reading the numbers: CDH1-null / parental viability ratio: higher = CDH1-null cells survive relatively better than parental; CDH1-null viability vs mock: higher = more viable CDH1-null cells; parental viability vs mock: higher = more viable parental cells

no.	gene symbol	reagent	CDH1-null / parental viability ratio	CDH1-null viability vs mock (fraction of mock)	parental viability vs mock (fraction of mock)
1	GTSF1L (gametocyte specific factor 1 like)	1	0.87	0.62	0.71
2	KIF7 (kinesin family member 7)	1	1.02	0.64	0.63
3	OR2AT4 (olfactory receptor family 2 subfamily AT member 4)	1	1.06	0.85	0.8
4	CDIN1 (CDAN1 interacting nuclease 1)	1	1.44	0.52	0.36
5	PIWIL3 (piwi like RNA-mediated gene silencing 3)	1	1.24	1.02	0.82
6	CACNA2D1	1	1.38	1.08	0.78
7	EXOG (exo/endonuclease G)	1	0.74	0.7	0.94
8	TWNK (twinkle mtDNA helicase)	1	0.96	1.02	1.06
9	GXYLT2 (glucoside xylosyltransferase 2)	1	1.13	0.78	0.69
10	ZFYVE1 (zinc finger FYVE-type containing 1)	1	1.04	1.04	1
11	COA4 (cytochrome c oxidase assembly factor 4 homolog)	1	1.03	0.72	0.7
12	ETS2 (ETS proto-oncogene 2, transcription factor)	1	0.95	0.9	0.95
13	TSR2 (TSR2 ribosome maturation factor)	1	0.84	0.52	0.62
14	PCM1 (pericentriolar material 1)	1	0.91	0.75	0.82
15	LPCAT3 (lysophosphatidylcholine acyltransferase 3)	1	1.03	0.8	0.78
16	RXRA (retinoid X receptor alpha)	1	0.68	0.51	0.75
17	TWIST2 (twist family bHLH transcription factor 2)	1	1.04	0.93	0.89
18	CIZ1 (CDKN1A interacting zinc finger protein 1)	1	1.05	1.03	0.98
19	CLRN1 (clarin 1)	1	0.98	0.63	0.64
20	BAG6 (BAG cochaperone 6)	1	1.23	0.86	0.7
21	PLXNA3 (plexin A3)	1	1.07	0.9	0.84
22	HIP1 (huntingtin interacting protein 1)	1	1.05	0.64	0.61
23	CLCC1 (chloride channel CLIC like 1)	1	1.11	0.94	0.85
24	NOB1 (NIN1 (RPN12) binding protein 1 homolog)	1	1.04	0.84	0.81
25	OSTN (osteocrin)	1	1.06	0.83	0.78
26	MTNR1A (melatonin receptor 1A)	1	1.29	0.9	0.7
27	ARID4B (AT-rich interaction domain 4B)	1	1.09	0.88	0.81
28	ARPC5 (actin related protein 2/3 complex subunit 5)	1	1.29	1.06	0.82
29	TBC1D3F (TBC1 domain family member 3F)	1	1.21	0.92	0.76
30	TBC1D3F (TBC1 domain family member 3F)	2	1.21	0.8	0.66
31	SDC4 (syndecan 4)	1	0.96	0.88	0.92
32	COPB2 (coat protein complex I subunit beta 2)	1	1.11	0.2	0.18
33	LCN12 (lipocalin 12)	1	0.92	0.96	1.04
34	TRIM49 (tripartite motif containing 49)	1	0.9	0.77	0.86
35	MMP8 (matrix metallopeptidase 8)	1	1.21	0.94	0.78
36	FRMPD4 (FERM and PDZ domain containing 4)	1	1.03	0.79	0.77
37	ST3GAL4 (ST3 beta-galactoside alpha-2,3-sialyltransferase 4)	1	1.09	0.94	0.86
38	MNT (MAX network transcriptional repressor)	1	1.07	0.77	0.72
39	FOXK2 (forkhead box K2)	1	0.97	0.85	0.88
40	SUN1 (Sad1 and UNC84 domain containing 1)	1	0.66	0.58	0.88
41	ZFYVE16 (zinc finger FYVE-type containing 16)	1	1.02	0.53	0.52
42	PDK2 (pyruvate dehydrogenase kinase 2)	1	1.05	0.9	0.86
43	MECP2 (methyl-CpG binding protein 2)	1	0.96	0.46	0.48
44	NDUFC1 (NADH:ubiquinone oxidoreductase subunit C1)	1	1.08	1.28	1.19
45	ELP3 (elongator acetyltransferase complex subunit 3)	1	0.87	0.84	0.97
46	FANCF (FA complementation group F)	1	0.89	0.84	0.94
47	CDKN1C (cyclin dependent kinase inhibitor 1C)	1	1.05	0.8	0.76
48	MAGEB1 (MAGE family member B1)	1	0.93	0.56	0.6
49	P3H4 (prolyl 3-hydroxylase family member 4 (inactive))	1	1.06	0.57	0.54
50	RAD54L2 (RAD54 like 2)	1	0.88	0.52	0.59
51	BCL7C (BAF chromatin remodeling complex subunit BCL7C)	1	0.99	0.77	0.78
52	HOGA1 (4-hydroxy-2-oxoglutarate aldolase 1)	1	1.39	0.85	0.61
53	VARS2 (valyl-tRNA synthetase 2, mitochondrial)	1	1.08	1.05	0.97
54	ZNF585B (zinc finger protein 585B)	1	1.39	0.5	0.36
55	EIF2S1 (eukaryotic translation initiation factor 2 subunit alpha)	1	1.04	0.54	0.52
56	SPANXC (SPANX family member C)	1	1.36	0.38	0.28
57	OR13C9 (olfactory receptor family 13 subfamily C member 9)	1	1.03	0.64	0.62
58	FBXO32 (F-box protein 32)	1	0.86	0.55	0.64
59	DEFB107A (defensin beta 107A)	1	1.02	0.86	0.84
60	SIKE1 (suppressor of IKBKE 1)	1	1.15	0.6	0.52
61	TFAP2C (transcription factor AP-2 gamma)	1	0.86	0.62	0.72
62	CRACDL (CRACD like)	1	0.9	0.72	0.8
63	PRIM1 (DNA primase subunit 1)	1	0.88	0.64	0.73
64	OSBPL5 (oxysterol binding protein like 5)	1	0.99	0.77	0.78
65	BBOX1 (gamma-butyrobetaine hydroxylase 1)	1	0.96	0.92	0.96
66	CYP27A1 (cytochrome P450 family 27 subfamily A member 1)	1	0.83	0.65	0.78
67	GPRIN1 (G protein regulated inducer of neurite outgrowth 1)	1	1	0.62	0.62
68	NAF1 (nuclear assembly factor 1 ribonucleoprotein)	1	0.97	0.83	0.86
69	NME3 (NME/NM23 nucleoside diphosphate kinase 3)	1	0.99	0.79	0.8
70	ACSS1 (acyl-CoA synthetase short chain family member 1)	1	1.16	0.44	0.38
71	OR4N4 (olfactory receptor family 4 subfamily N member 4)	1	0.85	0.5	0.59
72	SLC23A1	1	0.77	0.89	1.15
73	ZCCHC3 (zinc finger CCHC-type containing 3)	1	1.13	0.88	0.78
74	PARP6 (poly(ADP-ribose) polymerase family member 6)	1	0.9	0.63	0.7
75	CALU (calumenin)	1	0.98	0.86	0.88
76	SLC16A14	1	0.93	0.86	0.92
77	CHCHD3 (coiled-coil-helix-coiled-coil-helix domain containing 3)	1	1.21	1.44	1.19
78	ERICH1 (glutamate rich 1)	1	0.81	0.76	0.94
79	ENTR1 (endosome associated trafficking regulator 1)	1	1.15	0.99	0.86
80	GSK3B (glycogen synthase kinase 3 beta)	1	0.8	0.78	0.97
81	TBC1D1 (TBC1 domain family member 1)	1	0.91	0.89	0.98
82	FZD9 (frizzled class receptor 9)	1	0.89	0.84	0.94
83	FSD1L (fibronectin type III and SPRY domain containing 1 like)	1	0.88	0.44	0.5
84	OR4A5 (olfactory receptor family 4 subfamily A member 5)	1	1.07	0.91	0.85
85	PRICKLE4 (prickle planar cell polarity protein 4)	1	1.01	0.92	0.91
86	LPL (lipoprotein lipase)	1	0.74	0.34	0.46
87	INA (internexin neuronal intermediate filament protein alpha)	1	1.19	0.68	0.57
